Measured values reported in patent US7700646B2, “Compounds for use in the treatment of infection” (The University of London, School of Pharmacy, priority 2004, dated 2010).
Some of these results come from one statement about several compounds together.

Tested on: MRSA strains BB 568, EMRSA-15 and EMRSA-16
Test: Modulation of oxacillin resistance, summary over three strains
Assay type: cell-based, Staphylococcus aureus
Details: in presence of 25 mg/L compound
Protocol: Bacterial strains: S. aureus BB568 (COL-type strain that carries mecA and pT181) was provided by Professor B. Berger-Bächi. EMRSA-15 and EMRSA-16 were clinical isolates from the Royal Free Hospital, London.
Antibacterial susceptibility testing: Minimum Inhibitory Concentration (MIC) was determined by both broth and agar dilution techniques. Broth MIC testing was performed in 96-well microtitre trays with an inoculum of about 10^4 cfu in 100 μL of Mueller-Hinton broth (MHB) (Oxoid, Basingstoke, United Kingdom) supplemented with 2% NaCl. MIC determinations by agar dilution were carried out using Mueller-Hinton agar (Oxoid) with an inoculum of about 10^4 organisms per spot. For both methods, MIC values were obtained after incubation at 35° C. for 24 h. S. aureus ATCC29213 was used as the standard.
Sub-inhibitory concentrations (6.25, 12.5 and 25 mg/L) of both compounds were effective in reducing the MIC of all three strains examined.
At a concentration of 25 mg/L, ECg and the two analogues (47 and 48) fully sensitised each of the three MRSA strains to oxacillin, reducing the MICs to less than 0.5 mg/L, a figure well below the clinically-relevant breakpoint for β-lactam antbiotics.

O=C(O[C@@H]1Cc2c(O)cc(O)cc2O[C@@H]1c1ccc(O)c(O)c1)c1cc(O)c(O)c(O)c1 [ECg, (−)-epicatechin gallate, reference compound]
Oxacillin MIC, each of the three MRSA strains: less than 0.5 mg/L
